Results reported in patent US20210085676A1, “TREATMENT FOR AGE- AND OXIDATIVE STRESS-ASSOCIATED MUSCLE ATROPHY AND WEAKNESS” (Oklahoma Medical Research Foundation, priority 2018, published 2021).

Tested on: SERCA1 and SERCA2
Test: SERCA1 and SERCA2 mRNA (real-time PCR) and protein (western blot) levels in gastrocnemius of treated mice
Assay type: in vivo, mouse
Details: 50 mg/kg i.p. 3 times per week, 7 weeks
Description: Animals. The generation and characterization of the Sod1^−/− mice is described in detail elsewhere (3, 24). Female ≈2 months old C57BL/6J wild-type (WT; n=12-18) and Sod1^−/− mice (n=12-18) were divided into four groups and treated with either vehicle (10% DMSO, 10% Tween-80 in PBS) or CDN1163 (50 mg/kg) by intraperitoneal injection three times per week for 7 weeks. Care and management of the mice was executed according to The Guide for the Care and Use of Laboratory Animals and approved by the institutional Animal Care and Use Committee at the Oklahoma Medical Research Foundation (OKC, Okla., USA). Protein preparation and western blot. Muscles were homogenized in RIPA buffer containing 50 mM Tris (pH 7.4), 150 mM NaCl, and protease inhibitors. Protein was quantified using the Bio-Rad kit (Sigma-Aldrich, Poole, UK) and transferred to nitrocellulose membrane after electrophoresis using 8-15% polyacrylamide gels. Bands were scanned and quantified using Gene Tool system (SynGene—Frederick, Md.). All image intensities were normalized to protein intensity based on the ponceau stain. Quantification of mRNA levels using real-time PCR. […] The data were analyzed using the ΔΔCt method. […] Ca^2+-dependent Ca^2+-ATPase activity was measured in gastrocnemius muscle homogenates to determine the effects of CDN1163 on SERCA function. […]

Cc1ccc2cccc(NC(=O)c3ccc(OC(C)C)cc3)c2n1 [CDN1163, 4-(1-Methylethoxy)-N-(2-methyl-8-quinolinyl)-benzamide]
SERCA1 and SERCA2 mRNA levels: no effect; also recorded: not altered
SERCA1 and SERCA2 protein levels: no effect; also recorded: not altered

“Also recorded” adds a separate entry of the source.
